Results taken from US20210324281A1, “FUEL DERIVED FROM RENEWABLE RESOURCES” (priority 2018, published 2021).
Some results were stated once for a whole list of compounds, not compound by compound. At least one structure is not confirmed: it was looked up by name or label, or the drawing left a doubt. Some compounds share one range, which may span the group rather than tell each member.

Assay: RapidOxy oxidative stability measurement (DIN EN 16091, 140° C., 700 kPa oxygen)
Format: physicochemical
Settings: 500 ppm (n/n) in Plantanol with 1 wt.-% solketal, versus pure Plantanol, FIG. 15
Procedure: In this method, the pressure of a closed, with oxygen filled and afterwards heated sample chamber is measured against time. […] Therefore, the samples are heated up to 140° C. with an oxygen pressure of 700 kPa. […] The incubation time is the period between the start of the experiment and until the pressure dropped by 10% compared to the maximum pressure in the sample chamber. In FIG. 8 etc., this limit is indicated by a dashed line.
For this purpose, the samples were heated up to 140° C. at 700 kPa in an oxygen atmosphere. Thereafter the device measured the pressure with respect to the time. The measurement automatically stopped once a decrease of the pressure of 10% occurred. The time needed for this decrease by 10% is called “induction time” and represents a characteristic quantity for the oxidative stability of a fuel. The quantity “ppm” (parts per million) in the present experimental examples refers to a molar ratio (n/n), if not stated otherwise.

SMILES | increase of the induction time
O=C(O)/C=C/c1ccc(O)c(O)c1 [caffeic acid] | 10 to 15 min
O=C(O)c1cc(O)c(O)c(O)c1 [gallic acid] | 10 to 15 min
OCCc1ccc(O)c(O)c1 [hydroxytyrosol] | 10 to 15 min
O=c1c(O)c(-c2ccc(O)c(O)c2)oc2cc(O)cc(O)c12 [quercetin] | 10 to 15 min
